# Experimental data from the supplement of paper PMC5949888.
# Most values lie at the floor of the assay. Slopes are relative: functional sequences can read slightly below zero.
# Test system: Saccharomyces cerevisiae PS128 hsf1 delta, HSF1(1-493) fusion
# Assay: growth estimate (transactivation domain function in HSF1 fusion, heat-shock survival) (a.u. (slope of normalised read count over time)); higher = stronger growth at 37°C, i.e. more transactivation activity
# Details: library: random library
row,Substance,growth estimate
1,NCLTDGDRNVAAGTLHNCML,< -0.25
2,NCRYRSVAFIVTAPTHWQNG,< -0.25
3,NCSILM,< -0.25
4,NCSM,< -0.25
5,NDESGGDLRLKDGVPLHIQR,< -0.25
6,NDLVRSPRRAGQCWRRALAT,< -0.25
7,NDPLILSQPLVVR,< -0.25
8,NDQSEGSAATCLYDLRSFGT,< -0.25
9,NDRPFEVQSRAVCVHLPRN,< -0.25
10,NDTRVARVWVTIGESYVITV,< -0.25
11,NDVKSYCN,< -0.25
12,NDYFRAGWLSCATM,< -0.25
13,NEAFVPLIARAS,< -0.25
14,NEAVNGVLSYIMAGDSTLST,< -0.25
15,NEAVPLIPLNCILGI,< -0.25
16,NECRPR,< -0.25
17,NEGFEQSSGRHPTRVKAAQY,< -0.25
18,NEGIDEARGDTA,< -0.25
19,NEGRRGSLAIGGSVSVLKQH,< -0.25
20,NEHNMLDLMPSLISGRCNKR,< -0.25
21,NELAQESSAQFGVAEAAAAV,< -0.25
22,NENGFCRLSCKNNCCLQCIR,< -0.25
23,NERGVHDGQIGGP,< -0.25
24,NESQLSGSLRAYVGALAKSG,< -0.25
25,NESVDGGSVVIAGAPSSPNF,< -0.25

row,Substance,growth estimate
1,NEWGALPIYFVFFVRTAQTS,< -0.25
2,NFETSIAAL,< -0.25
3,NFFPANTVGLGTMIRSADKC,< -0.25
4,NFGGVVVRTVAENVMAHLGQ,< -0.25
5,NFGNGQSTWISGFGLQCPCG,< -0.25
6,NFGYTNAMLRLVGSSRICGM,< -0.25
7,NFHHSLPQTTGCPVSGIYVG,-0.246
8,NFRDAIGHGGTKSGSAHFPA,< -0.25
9,NFYG,< -0.25
10,NGASVVLGLTASLGRRVP,< -0.25
11,NGCRRDFKHEPWALSHARGR,-0.246
12,NGDLEVLQRRVTRQVPSKPV,< -0.25
13,NGEIYHQTLSSTVLKPPGTP,< -0.25
14,NGELATK,< -0.25
15,NGEPCHHGAMHLRLSGRGGP,< -0.25
16,NGFLVGRYVL,< -0.25
17,NGGQTCDKQALS,< -0.25
18,NGGWREKGYFRCKGRALVHC,< -0.25
19,NGHHW,< -0.25
20,NGINNSGWIVPEGPIDMFCA,< -0.25
21,NGLRAVSVLDILTGASPRLP,< -0.25
22,NGLYIRPGDPLIFVT,-0.248
23,NGNSSVPVFPPLGDLV,< -0.25
24,NGPIRSSLSVNWSGPSTVTM,< -0.25
25,NGPKNMISLKQ,< -0.25

# Some of the entries so far, with tabs:
row	Substance	growth estimate
3	NFFPANTVGLGTMIRSADKC	< -0.25
4	NFGGVVVRTVAENVMAHLGQ	< -0.25
5	NFGNGQSTWISGFGLQCPCG	< -0.25
6	NFGYTNAMLRLVGSSRICGM	< -0.25

# Next records:

row,Substance,growth estimate
1,NGQGTSANERPPEKTSWNLR,< -0.25
2,NGRVVHPCRVEPRMRVVDGS,< -0.25
3,NGSGLACVDRS,< -0.25
4,NGTPSRYSPW,< -0.25
5,NGTSIGRVKAILNPQDGVQM,< -0.25
6,NGVFGISKLVILLFMTPGAV,< -0.25
7,NGVSIQAYAGRGRTSVTVSQ,< -0.25
8,NGVSKRGEHR,< -0.25
9,NGWVVTAAL,< -0.25
10,NGYQVQPRNELRRDLGISSR,< -0.25
11,NHCGNNASNRLPVPVSTVFS,< -0.25
12,NHGFFSQI,< -0.25
13,NHGGVGDIRSDHGLSGVHVC,< -0.25
14,NHNARFSPWVPQAS,< -0.25
15,NHP,< -0.25
16,NHRP,< -0.25
17,NHVAVVNANISVSESGAASP,< -0.25
18,NICIGGYELCPWAEETQARL,< -0.25
19,NIEIGGGFLQGGGFVNARRN,< -0.25
20,NIERS,< -0.25
21,NIGGHPAHSSTDQFAVSDRY,< -0.25
22,NIGKRLTSGSIAVLFRSVMN,< -0.25
23,NIGRGKKVGGVRDPPAENTC,< -0.25
24,NILLEYTHPLSYALWHCAPS,< -0.25
25,NINQPTVPLFLAFLSLFRIQ,< -0.25

# An excerpt of these results, as tab-separated lines.
row	Substance	growth estimate
5	NGTSIGRVKAILNPQDGVQM	< -0.25
12	NHGFFSQI	< -0.25

# Going on with the list.

row,Substance,growth estimate
1,NIREWNPRSN,-0.248
2,NIRWPLYLCTGSHRTGPEQV,< -0.25
3,NIVLPDAYCILLRWWD,< -0.25
4,NIWG,< -0.25
5,NKN,< -0.25
6,NKRVLLNTVGDRHDSMASDL,< -0.25
7,NLAIGKHAAAQYSQLRGAEN,-0.229
8,NLARVYPEAQEYKYFGHSAE,< -0.25
9,NLAWT,< -0.25
10,NLCDSFHPTSFQASRCSWYK,-0.206
11,NLCLSHAEGSYLRLTGAQQL,< -0.25
12,NLECDRCTR,< -0.25
13,NLGGRKLLARLRIRRDVLRN,< -0.25
14,NLLGCILGQRDGN,< -0.25
15,NLLIATSATLGPTPMFAPPP,< -0.25
16,NLLRSDFVIRAVT,< -0.25
17,NLMRLPIRLIEDREDRISNP,< -0.25
18,NLNIRKGTVG,< -0.25
19,NLPTDQPHVNVCAKWHGKMI,< -0.25
20,NLQTSRVWRAVELRGYKKV,< -0.25
21,NLRAS,< -0.25
22,NLRGVPLFGVHPVANPAGGR,< -0.25
23,NLRPNTWTRFHRHPLRERRR,< -0.25
24,NLRQFLCEPTCGIVHERSVS,< -0.25
25,NLRT,< -0.25

row,Substance,growth estimate
1,NLRTCDRWSGMSG,< -0.25
2,NLRVKA,< -0.25
3,NLSLVFGINSPLEHWYVGLR,< -0.25
4,NLSRHGKITDLHSTYPFCCE,0.156
5,NLTWHRIG,< -0.25
6,NLV,< -0.25
7,NLVAAGKAALCGSSS,< -0.25
8,NLVPLRLVSTDNPGLGS,< -0.25
9,NLVVMISADERVMWARHLRI,< -0.25
10,NMA,< -0.25
11,NMGLMERPALADNGTRG,< -0.25
12,NMIFSIRVVSMR,< -0.25
13,NMKYPTNSDRKLAVL,< -0.25
14,NMLEGRSVFSTKSKRPWYYC,< -0.25
15,NMSTLRSAQGMKGSGLVSTQ,< -0.25
16,NMTRQRYLLSIGLELIFRRE,< -0.25
17,NNCGSILIHVGHSHAAFHRV,< -0.25
18,NNESKVVNHC,< -0.25
19,NNGVDGGDYADGYGRGVTGS,< -0.25
20,NNIRWEIHKIHQPTSNNLAP,-0.229
21,NNLEIIVFGSRLEKRPMA,< -0.25
22,NNNAVRVLPILRAPDVHLRG,< -0.25
23,NNPPRGTFVSD,< -0.25
24,NNRQKQDQLQLQAAIISPTT,-0.183
25,NNWVLLL,-0.242

row,Substance,growth estimate
1,NPDNSIGL,< -0.25
2,NPENFAIKSALKRAEPCL,< -0.25
3,NPGAPVRLASGVA,< -0.25
4,NPLAHGELDI,< -0.25
5,NPLLRSLSPNTPVLPFKVCS,< -0.25
6,NPPIQRLQPTSTIPGLTSDL,< -0.25
7,NPQVCNKCSRLSMRNAVKTD,< -0.25
8,NPVIGACPGCYLLIRRYLCE,< -0.25
9,NPYR,< -0.25
10,NQDPYAIIAAHAIAWKRTG,-0.245
11,NQEY,< -0.25
12,NQGRARMVMSARYLHGSPRP,< -0.25
13,NQIEFFTRRLA,< -0.25
14,NQKSWGQSSVEITGDPPTAY,< -0.25
15,NQLAFHDK,< -0.25
16,NQPRLAPHVTRCRPAWEPLR,< -0.25
17,NQRNLPIRCGTSTPGPGITY,< -0.25
18,NQRVECQI,< -0.25
19,NQSFSNVVGAPAVCR,< -0.25
20,NQSRPVYLRQGPHCT,< -0.25
21,NQVTQR,-0.246
22,NRAAMTLTHSLVDR,< -0.25
23,NRCMRSSECSTK,< -0.25
24,NRD,< -0.25
25,NREYCCVREYCREALNGVAP,< -0.25

row,Substance,growth estimate
1,NRFHGYHGKGGHRGHTQKCV,< -0.25
2,NRGLGALNTLAYSHMGINRI,< -0.25
3,NRGRKSRLRQRRSGTKTICP,< -0.25
4,NRI,< -0.25
5,NRIRNGSYRFLLTHH,< -0.25
6,NRLEGQSSKTP,< -0.25
7,NRLRGQNVITECLNSAQ,< -0.25
8,NRMACQPEPTASRWEVMHYG,< -0.25
9,NRNWHALKHVLH,< -0.25
10,NRPCPQGRGLYSSLLAYPYR,< -0.25
11,NRPLGKLNALPGKDGTRPRA,< -0.25
12,NRPPGIDEESSQGGAFVMPS,< -0.25
13,NRQGEGK,< -0.25
14,NRQLVPPNTKRSYRLRCTCF,< -0.25
15,NRRALAAWEIAYVCNCEKRD,< -0.25
16,NRRKRWSGLHWLLLRALRKF,< -0.25
17,NRSGWNALCG,< -0.25
18,NRSS,< -0.25
19,NRVFRGP,-0.25
20,NRVIKLVPIRGHVKRLLARE,< -0.25
21,NRVLLN,-0.243
22,NRVSDASFTFAGSLQRRGTT,< -0.25
23,NRVVGLYLSSTSGAEFAGRA,< -0.25
24,NRVYLLMLIFSIRLGRIIAF,< -0.25
25,NRYIRARTRQRGVASTTHPA,< -0.25

row,Substance,growth estimate
1,NRYLEM,< -0.25
2,NSCASENVDAGYAGQTAAAR,< -0.25
3,NSCGEYNTSQNTDLPLAY,< -0.25
4,NSDGAYVPQALAKLECRFER,< -0.25
5,NSDNGEVESAWSS,< -0.25
6,NSFSGRCNGLLTAT,< -0.25
7,NSIRSRVNLAMEPLKSTKHR,< -0.25
8,NSKRQGTGLREIGLNSVIIR,< -0.25
9,NSLAAG,< -0.25
10,NSNRYMSSVAN,< -0.25
11,NSNTVVR,< -0.25
12,NSPNSCPSFRYRLLASLLWS,< -0.25
13,NSRFREKSGGAIGVVTAGHC,< -0.25
14,NSRFSRAAHSYRAQIMLCGE,< -0.25
15,NSRIGGWRFLAKSPVTESSP,< -0.25
16,NSRRWT,< -0.25
17,NSSG,-0.245
18,NSSY,< -0.25
19,NSTLIIT,< -0.25
20,NSV,< -0.25
21,NSWM,< -0.25
